Test results reported in publication doi:10.1101/2025.11.07.687077.
No constants are given. Whether binding was seen depends on the method and setting. Some binding calls cover weakened binding; strength is not graded here.

Amino acid sequences for entries named in this document (tags omitted). Residues count along the entry.
UniProt P43407, residues 19-145: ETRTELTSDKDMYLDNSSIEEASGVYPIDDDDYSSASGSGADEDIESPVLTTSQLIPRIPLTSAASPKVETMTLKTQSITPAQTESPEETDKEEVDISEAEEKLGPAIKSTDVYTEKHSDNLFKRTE
UniProt P40224, residues 22-93: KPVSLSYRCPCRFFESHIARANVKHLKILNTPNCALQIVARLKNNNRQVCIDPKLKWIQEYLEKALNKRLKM
UniProt P04202, residues 279-390: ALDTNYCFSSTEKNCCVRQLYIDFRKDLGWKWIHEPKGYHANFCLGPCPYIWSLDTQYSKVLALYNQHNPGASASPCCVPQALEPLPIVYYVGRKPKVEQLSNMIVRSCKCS

Biological target: purified murine syndecan-2 ectodomain (murine) (UniProt P43407)
Assay: SPR

Substance	binding
stromal derived factor-1 (CXCL12) (from UniProt P40224 22-93) (ligand)	binds
transforming growth factor beta 1 (TGF-β1) (from UniProt P04202 279-390) (ligand)	binds
